In all, about 320,000 compounds went through this assay and about 2,100 (0.66%) were called active. Inconclusive means that the source gave no clear call. Such entries were picked first, then a sample of the others. Calls come from the whole dose curve; as a rule, active = well fitted inhibition curve with a large enough effect in the signal ratio, with a control signal flat (not every such curve was filed as active); inconclusive = small, poorly fitted or top-dose-only effect, or effect the other way, or a change in a side signal; inactive = flat fitted curve, though single readings scatter; the % refers to the signal ratio. A potency beside an inconclusive call is a rough fit, not a confirmed value.
Assay: qHTS Assay for Lipid Storage Modulators in Drosophila S3 Cells
Details: BODIPY lipid droplet fluorescence, 18-24 h, cells fed with added oleic acid; lipid storage change, negative = inhibition: at 46.1 µM (top of the series) unless noted
Procedure, shortened: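 Drosophila S3 cells loaded with oleic acid (400 uM, as added) and compounds at several concentrations; lipid droplets imaged by 488-nm laser-scanning cytometry, 500–530 nm intensity and object ratio to cell channel. Percent activity normalized to 20 uM Triacsin C.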
% is set by controls: 0 for no effect and ±100 for the full control effect; potency is the fitted concentration of half-maximal effect.

Lipid storage change, negative = inhibition, inactive:
O=C(O)c1cc(-c2ccccc2Cl)n(-c2ccccc2)n1
COc1ccc(C(=O)NC(=S)NNC(=O)c2ccco2)cc1

Lipid storage change, negative = inhibition, inconclusive:
Nc1c(N(CCC2=CCCCC2)C(=O)Cc2ccccc2F)c(=O)[nH]c(=O)n1Cc1ccccc1 -10.3%
Cn1c(=O)c2c(nc(CN3CCN(c4ccc(F)cc4)CC3)n2Cc2ccccc2F)n(C)c1=O 8.93%
O=C(CSc1nc2ccc(Cl)cc2[nH]1)NCCc1ccc(Cl)cc1 28.9%
CN(C)/C=N/c1c(C(=O)NCc2ccccc2)nnn1Cc1ccccc1 -12.8%
O=C(Nc1ccc(F)cc1)C1CC(=O)n2cnnc2N1 (stereo not given) -50.3%
Cc1cc2nnc(SCC(=O)NCc3cccs3)n2c2ccccc12 2.08%
Cc1cccc(N(CC(=O)NC2CCCC2)C(=O)CCC(=O)Nc2nc(C)cs2)c1 228%
COc1ccc(S(=O)(=O)NC2CCSc3ccccc32)cc1NC(C)=O (stereo not given) -64.1%
O=C(COC(=O)/C=C/c1cccs1)Nc1cccc(S(=O)(=O)N2CCCC2)c1 7.26%
Cc1cccc(Cc2nnc(CCC(=O)NCc3ccncc3C)o2)c1 -19.8%
CCOc1ccc(/C=N/n2c(SC)nnc2-c2ccccc2)cc1OCC -1%
CCO[C@H]1OC(C(=O)NC2CC2)=C[C@@H](c2ccccc2)[C@@H]1CCCO 9.87%
Cn1c(SCc2cccc(F)c2)nnc1-c1ccccn1 23.4%
COc1ccc(CCNS(=O)(=O)c2ccc(OC)c(OC)c2)cc1OC 22.8%
CC(C)Cc1nnc(NC(=O)c2cccc(S(=O)(=O)N3CCN(C)CC3)c2)s1
CCn1c(SCC(=O)O)nc2ccccc21 -20.3%
CC(C)N=C1SCC(C)(/C=N/O)S1 (stereo not given) -13.6%
CCOC(=O)C1C(=O)CC(=O)CC1CC(C)SCC (stereo not given) 27.7%
CSc1cccc(NC(=S)NC(=O)c2cccnc2)c1 -6.23%
O=[N+]([O-])c1cc(-c2ccn[nH]2)ccc1Cl 9.45%
CC(C(=O)NC1CCCCC1)N1CCN(S(=O)(=O)c2cccs2)CC1 (stereo not given) 12.8%
COC(=O)c1c(-n2cnnn2)sc(C)c1C 16.1%
O=C(c1cccs1)N1CCCC(c2nc3c(nnn3Cc3ccc(F)cc3)c(=O)[nH]2)C1 (stereo not given) -54.5%
O=C1CCCN1c1ccc(S(=O)(=O)NCCc2ccc(Cl)cc2)cc1 211%
CC(=O)c1cccc(NS(=O)(=O)c2ccc(C(=O)Nc3ccccc3)cc2)c1 -49.6%
Cc1cc(NC(=O)COc2cccnc2[N+](=O)[O-])no1 -7.9%
CCCC1C2CN(C(C)C)CC=C2C(C#N)=C(N)C1(C#N)C#N (stereo not given) 9.97%
CCOc1ccc(NC(=O)CSc2nc3cccnc3n2CC)cc1 -17.6%
O=S(=O)(Nc1ccc(Cl)cc1)c1ccc2c(c1)CCO2 -4.41%
O=C(CCNC(=O)c1ccc(Br)cc1)Nc1cc(Cl)ccc1-n1cncn1 38.1%
Cc1ccc(NC(=O)CCNC(=O)c2ccc([N+](=O)[O-])cc2)cc1S(=O)(=O)N(C)C -24%
COc1ccc2nc3oc(C(=O)NCc4cccs4)cc3cc2c1 -33.8%
COc1ccc(C(=O)NCc2nnc(SCC(=O)c3ccccc3)n2C)cc1OC
CCOc1cc(C(=O)N/N=C(\C)Cc2ccc(OC)cc2)cc(OCC)c1OCC 36.9%
Cc1c(OC(C(=O)O)c2ccccc2)ccc2c1oc(=O)c1ccccc12 (stereo not given) 105%
Cc1ccc(-n2nc3c(=O)n(CCCC(=O)NCc4ccc(F)cc4)nc(C)c3c2C)cc1 -8.56%
COc1ccc(OCC2c3cc(OC)c(OC)cc3CCN2C(=O)C(C)C)cc1 (stereo not given) -30%
CC(C)COc1ccc(C(=O)N/C(=C\c2cccc([N+](=O)[O-])c2)C(=O)O)cc1 -15.5%
CCn1c(N2CCC(Cc3ccccc3)CC2)nc2c1c(=O)[nH]c(=O)n2C 45.2%
Cc1nc(N)c(Cc2ccc(Cl)cc2Cl)c(N)n1 -12.8%
O=P1(c2ccccc2)C=Cn2c1cc1c2CCCC1 (stereo not given) -37.6%

Potency, inconclusive:
C/C=C/c1ccc(OCC(=O)Nc2cc(S(=O)(=O)N3CCOCC3)ccc2N2CCCC2)c(OC)c1 29.1 µM [falling, single point]
Cc1cccc(CN2CCCC(C(=O)N3CCCCC3)C2)c1 (stereo not given) 29.1 µM [rising, single point]
CC1(NC(=O)c2cccc(S(=O)(=O)N3CCCc4ccccc43)c2)CCS(=O)(=O)C1 (stereo not given) 9.2 µM [activator, partial curve]
COc1ccc(CN2C(=O)COc3ccccc32)cc1 18.4 µM [activator, single point]
CN(c1cccc(NC(=O)c2cccc([N+](=O)[O-])c2)c1)S(C)(=O)=O 29.1 µM [falling, single point]
COc1ccc(N2CC(C(=O)N3CCN(C(=O)c4ccco4)CC3)CC2=O)cc1 (stereo not given) 29.1 µM [activator, single point]
CC(C)(C)n1cnc2cc(NC(=O)c3ccccc3)ccc21 2.31 µM [falling, full curve, poor fit]
CCOc1cccc(CNCc2ccncc2)c1 5.8 µM [activator, single point]
COc1ccc(C(=O)COC(=O)c2cc(C)no2)c(OC)c1 0.731 µM [falling, full curve]
Cc1oc(-c2ccccc2F)nc1CSCC(=O)NC1CCC(C)CC1 (stereo not given) 6.51 µM [activator, single point]
O=C(NC1CCCCC1)C1CC(=O)N(Cc2ccccc2)C1 (stereo not given) 6.51 µM [falling, single point]
CCOC(=O)N1CCc2c(sc3c2c(=O)n(Cc2ccccc2)c(=O)n3CC(=O)NCC2CCCO2)C1 (stereo not given) 7.31 µM [rising, partial curve]
CNC(=O)CSc1nc2cc(S(=O)(=O)Nc3ccccc3OC)ccc2o1 2.91 µM [activator, single point]
CC1=C(C(=O)OCc2ccccc2)C(c2cccc(Br)c2)NC(=O)N1 (stereo not given) 3.26 µM [falling, partial curve]
O=C(c1ccc(COc2ccc(F)cc2)o1)n1cccn1 0.116 µM [falling, full curve, poor fit]
C/C(=N/NC(=O)CNC(=O)C1COc2ccccc2O1)c1ccc([N+](=O)[O-])cc1 (stereo not given) 6.51 µM [activator, partial curve, poor fit]
CCOc1ccccc1N1CCN(C(=O)c2ccc(OCC(=O)N3CCOCC3)c(OC)c2)CC1 12.6 µM [falling, single point]
CC(NC(=O)C1CCN(S(=O)(=O)c2cccs2)CC1)c1cccc(Cl)c1 (stereo not given) 23.1 µM [activator, single point]
CC(C)n1c(O)c(N=Nc2ccccn2)c2ccccc21 1.64 µM [activator, partial curve]
Cc1nc2cc(C(=O)NCc3ccc4c(c3)OCO4)ccc2n1-c1ccc(Br)cc1 16.4 µM [activator, partial curve, poor fit]
Nc1ccccc1NC(=O)NC(=O)c1ccccc1 29.1 µM [activator, single point]
CCCn1nnc(NC(=O)c2ccccc2Cl)n1 0.82 µM [falling, single point]
COCCCNC(=O)/C=C/c1c(Cl)cccc1Cl 0.82 µM [activator, full curve, poor fit]
Cc1cc(C)n(-c2ccc(C(=O)Nc3nnc(C)s3)cc2)n1 0.731 µM [activator, single point]
CN(c1ccc(OCC(=O)N2CCCCC2)cc1)S(=O)(=O)c1cccs1 29.1 µM [rising, single point]
O=C(CSc1nnc2sc3ccccc3n12)N1CCN(c2ccccc2)CC1 29.1 µM [rising, single point]
COC(=NC(C)C)NC(C)C 0.0052 µM [falling, full curve, poor fit]
Clc1cccc(CSc2nc3ccncc3[nH]2)c1 20.6 µM [activator, single point]
NC(=O)CN1C(=O)C2CCCCN2C(=O)c2ccccc21 (stereo not given) 3.26 µM [activator, single point]
CSc1nsc(SCC(=O)Nc2ccc(O)c(C(=O)O)c2)n1 29.1 µM [activator, single point]
Cc1cc([N+](=O)[O-])cc2c1NCC1CC=CC21 (stereo not given) 4.11 µM [falling, full curve, poor fit]
c1ccc(CSc2nc3ncccn3n2)cc1 29.1 µM [activator, single point]

Three neighbouring compounds out of the list so far, for reference:
Potency, inconclusive:
Cc1cccc(CN2CCCC(C(=O)N3CCCCC3)C2)c1 (stereo not given) 29.1 µM [rising, single point]
CC1(NC(=O)c2cccc(S(=O)(=O)N3CCCc4ccccc43)c2)CCS(=O)(=O)C1 (stereo not given) 9.2 µM [activator, partial curve]
COc1ccc(CN2C(=O)COc3ccccc32)cc1 18.4 µM [activator, single point]

— PubChem BioAssay AID2685 (National Center for Advancing Translational Sciences (NCATS), 2010)
